Library screen at single concentrations

From ChEMBL document CHEMBL3988442, “University of Dundee, Small-Polar-MMV Screening Library” (2021).

Mtb cholesterol medium: 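Phenotypic screen: M. tuberculosis growth, cholesterol and DPPC medium, 4 days; the read-out is not stated. Compounds at 50 µM. Direction is inferred from retests: higher values go with more growth inhibition. About 69,000 compounds were tested under these conditions; 0.54% (about 370) showed 50% or more at least once.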
Mtb glucose medium: 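Whole-cell growth test on Mycobacterium tuberculosis, read after 3 days in glucose-containing 7H9 medium; the read-out is not stated. Tested at 50 µM. Higher reads as more growth inhibition (inferred: compounds with an IC50 in retests scored well above the rest). Size under these conditions: about 69,000 compounds, about 760 of them at 50% or above in at least one test.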

Results are given as percent effect.
The record does not define 0% and 100%; most values in the screen are far below 50% and negative numbers occur (in some assays of this library far below -100).
The compounds are a random part of those screened.
Two or more numbers in one place are separate tests of the same structure; such repeats can differ widely.

Result for CCC(CC)n1nc(C)cc1NC(=O)C1CCCO1 (stereo not shown) was Mtb cholesterol medium: -17.62%; Mtb glucose medium: 10.04%. For Clc1snnc1CN(Cc1cccs1)C1CC1 the result was Mtb cholesterol medium: -0.2967%; Mtb glucose medium: 8.579%. Cc1cc(C(=O)N2CCc3c(CN(C)C)nn(C)c3C2)[nH]n1 read Mtb cholesterol medium: 4.172% and -3.028%; Mtb glucose medium: -23.91%. For Cn1cnnc1CN1CCC2(CCC(=O)N(Cc3ccccc3)C2)CC1 the result was Mtb cholesterol medium: 7.105%; Mtb glucose medium: 34.5%. O=C(NCc1ncc[nH]1)c1c(F)cccc1I gave Mtb cholesterol medium: -0.3162% and -9.04%; Mtb glucose medium: -1.157% and 4.019%. With CCOc1ccc(C(=O)N2Cc3cnc(CC(C)C)nc3C2)o1 the screen gave Mtb cholesterol medium: 6.712% and 3.042%; Mtb glucose medium: -6.893%.

CC(=O)NC1CC(C)(C)Cc2c1cnn2-c1cccc(F)c1 (stereo not shown) read Mtb cholesterol medium: -0.2988%; Mtb glucose medium: 7.831% and 30%. CCn1cc(-c2cc(C(F)F)nc3sc(C(N)=O)c(N)c23)c(C)n1 gave Mtb cholesterol medium: -7.598%; Mtb glucose medium: -15.28%. With O=C(CCOc1ccccc1F)N1CCC(O)CC1 the screen gave Mtb cholesterol medium: 13.87%; Mtb glucose medium: 0.8219%. With CS(=O)(=O)c1cnc(N2CCCC2)nc1C1CCN(C(=O)C2CC2)CC1 the screen gave Mtb cholesterol medium: 1.385% and 6.498%; Mtb glucose medium: 0.9428%. COCCN1CCN(CCCc2nnnn2-c2ccccc2)CC1 gave Mtb cholesterol medium: -0.0519%; Mtb glucose medium: -0.5742% and 5.138%. Cc1cc(N2CCN(C(=O)c3cccnc3)CC2)nc(C)n1 read Mtb cholesterol medium: 23.27%; Mtb glucose medium: -8.544%.

Result for CN(CC1CCOC1)S(=O)(=O)c1cccc(C(=O)N2CCOCC2)c1 (stereo not shown) was Mtb cholesterol medium: -20.57%; Mtb glucose medium: -2.736%. With CCn1cnnc1CCNc1nc(C)cc(C)c1C#N the screen gave Mtb cholesterol medium: -10.31%; Mtb glucose medium: -9.9%. Cc1cccc(SC2CCN(C(=O)CCNS(C)(=O)=O)CC2)c1 gave Mtb cholesterol medium: -0.5619%; Mtb glucose medium: 8.337%. With Cc1noc(C2(C)CCCN(C(=O)C(C)C)C2)n1 (stereo not shown) the screen gave Mtb cholesterol medium: -2.434%; Mtb glucose medium: -11.58%. For COc1cccc(CCC2CCCCN2)c1 (stereo not shown) the result was Mtb cholesterol medium: 15.81%; Mtb glucose medium: 23.54%. Cn1cccc1C(=O)N1CCCCC12CC(=O)N(c1cccnc1)C2.O=C(O)C(F)(F)F (stereo not shown) gave Mtb cholesterol medium: -11.8%; Mtb glucose medium: -5.13% and -6.106%.

For CC(C)c1nnc2n1CC(CNCc1nc3ccccc3o1)CC2 (stereo not shown) the result was Mtb cholesterol medium: 10.83%; Mtb glucose medium: 2.048%. Result for Cc1cc(NCCc2nnc(N)s2)nc(-c2ccccc2)n1 was Mtb cholesterol medium: -22.07%; Mtb glucose medium: -2.789% and -6.083%. Result for Cc1ccc(S(=O)(=O)N2CCC(Oc3cccnn3)CC2)c(C)c1 was Mtb cholesterol medium: 17.58%; Mtb glucose medium: 19.98%. O=C(CCCn1cccn1)N1C[C@@H](O)[C@H](Oc2cccc(F)c2)C1 gave Mtb cholesterol medium: -7.822%; Mtb glucose medium: 1.823%. With Cc1ccsc1CNC(=O)Cc1c(C)nc2c(c1C)c(=O)[nH]n2C the screen gave Mtb cholesterol medium: 0.1424%; Mtb glucose medium: -2.071%. CC(=O)N1CCC(c2[nH]ncc2S(C)(=O)=O)CC1 gave Mtb cholesterol medium: 7.976%; Mtb glucose medium: 13.87%.

With CC(SCC(=O)N(C)CC(=O)NC1CC1)c1cc(F)ccc1F (stereo not shown) the screen gave Mtb cholesterol medium: -21.86%; Mtb glucose medium: -36.71%. With COc1ccc(CNCc2ccc(N3CCCCC3)nc2)cc1OC the screen gave Mtb cholesterol medium: -3.246%; Mtb glucose medium: -1.658%. Result for CCC(CC)c1cc(CNC(=O)N2CCCC(N(C)C)C2)on1 (stereo not shown) was Mtb cholesterol medium: -15.6%; Mtb glucose medium: -4.467%. Result for COc1cccc(CN(C)C(=O)c2ccc(NC(C)=O)s2)c1OC was Mtb cholesterol medium: -20.05%; Mtb glucose medium: -6.099%. With COC[C@@H]1CCC[C@@]12CN(Cc1ccc(C)s1)CCO2.O=C(O)C(F)(F)F the screen gave Mtb cholesterol medium: -13.26%; Mtb glucose medium: 23.66%. CNc1cncc(C2CCCN(S(C)(=O)=O)C2)n1 (stereo not shown) read Mtb cholesterol medium: -12.29%; Mtb glucose medium: -1.232%.

Result for CC(C)(CO)NCc1nn(Cc2ccccc2)nc1-c1ccccc1 was Mtb cholesterol medium: -5.519%; Mtb glucose medium: -17.23%. O=C(Cn1nc2c(cc1=O)CSCC2)N[C@@H](Cc1ccccc1)C(=O)O read Mtb cholesterol medium: 8.921%; Mtb glucose medium: 7.924%. For CC(=O)c1ccc(Cl)c(Cl)c1OCC(=O)NC(N)=O the result was Mtb cholesterol medium: -16.89%; Mtb glucose medium: -6.125%. CCNC(=O)CNS(=O)(=O)c1cc(Br)ccc1F read Mtb cholesterol medium: -5.138%; Mtb glucose medium: -21.04%. O=C(c1cnc2ccc(F)cc2c1NCc1ccco1)N1CCCC1 gave Mtb cholesterol medium: -39.76%; Mtb glucose medium: -1.397% and -7.553%. For CN(C(=O)Cn1nc(-c2ccc(F)cc2)oc1=O)c1ccccc1 the result was Mtb cholesterol medium: -1.099%; Mtb glucose medium: -10.37%.

Cc1cc(C)nc(N2CCC(c3cncc(-n4ccnc4)n3)CC2)n1 read Mtb cholesterol medium: 10.87%; Mtb glucose medium: 24.7%. C[C@@H]1CN(CCCOc2ccc(F)cc2)CC[C@@]1(O)C1CCOCC1 gave Mtb cholesterol medium: -14.11% and 0.5823%; Mtb glucose medium: -13.39%. OC1(CNCCCN2CCCc3ccccc32)CNCCOC1 (stereo not shown) gave Mtb cholesterol medium: 20.48%; Mtb glucose medium: 17.45% and 23.64%. O=C(NCCc1ccccc1)C1CCC(Cn2cnnn2)CC1 (stereo not shown) gave Mtb cholesterol medium: 1.377%; Mtb glucose medium: -11.13%. For [H][C@@]12CS(=O)(=O)C[C@]1([H])N(C(=O)c1ccc3c(c1)CCCN3)CCN2CC the result was Mtb cholesterol medium: 0.3206%; Mtb glucose medium: -12.99%. COCCN1CCC(c2cncc(N(C)C)n2)CC1 gave Mtb cholesterol medium: -15%; Mtb glucose medium: -18.35%.

The first 5 entries again:

compound,Mtb cholesterol medium,Mtb glucose medium
CCC(CC)n1nc(C)cc1NC(=O)C1CCCO1 (stereo not shown),-17.62,10.04
Clc1snnc1CN(Cc1cccs1)C1CC1,-0.2967,8.579
Cc1cc(C(=O)N2CCc3c(CN(C)C)nn(C)c3C2)[nH]n1,4.172 and -3.028,-23.91
Cn1cnnc1CN1CCC2(CCC(=O)N(Cc3ccccc3)C2)CC1,7.105,34.5
O=C(NCc1ncc[nH]1)c1c(F)cccc1I,-0.3162 and -9.04,-1.157 and 4.019